In paper doi:10.1101/816900 one finds binding data, which are given here for 1 substance.

Amino acid sequences for entries named in this document (tags omitted).
UniProt Q99376: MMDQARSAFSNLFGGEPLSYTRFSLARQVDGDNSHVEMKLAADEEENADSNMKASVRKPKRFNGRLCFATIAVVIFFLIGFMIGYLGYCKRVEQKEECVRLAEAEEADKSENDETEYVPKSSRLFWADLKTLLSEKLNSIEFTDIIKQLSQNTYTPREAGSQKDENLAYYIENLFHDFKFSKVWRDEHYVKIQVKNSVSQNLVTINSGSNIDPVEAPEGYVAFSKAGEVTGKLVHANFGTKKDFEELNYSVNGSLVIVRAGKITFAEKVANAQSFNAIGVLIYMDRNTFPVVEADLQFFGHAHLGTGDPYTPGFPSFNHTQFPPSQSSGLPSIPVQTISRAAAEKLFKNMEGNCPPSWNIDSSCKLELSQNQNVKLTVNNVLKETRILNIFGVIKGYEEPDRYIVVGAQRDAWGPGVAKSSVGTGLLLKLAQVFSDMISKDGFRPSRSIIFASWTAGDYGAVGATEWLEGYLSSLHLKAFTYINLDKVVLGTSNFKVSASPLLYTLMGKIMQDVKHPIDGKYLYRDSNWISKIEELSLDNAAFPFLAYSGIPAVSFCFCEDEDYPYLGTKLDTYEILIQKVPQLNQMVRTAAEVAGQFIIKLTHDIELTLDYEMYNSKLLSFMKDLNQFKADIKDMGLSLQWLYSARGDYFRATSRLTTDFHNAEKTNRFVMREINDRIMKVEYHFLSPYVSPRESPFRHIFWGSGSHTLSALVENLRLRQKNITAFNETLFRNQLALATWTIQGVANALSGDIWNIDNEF

Experiment [1] deals with mouse TfR1, untagged, full length, transiently expressed on HEK293 (Exp293F) cells (mouse) (UniProt Q62351). Put plainly: flow cytometry on cells. A general note: A flow cytometer gives signals particle by particle.
Experiment [2] concerns the target rat TfR1, untagged, full length, transiently expressed on HEK293 (Exp293F) cells (rat) (UniProt Q99376). Kind of experiment: flow cytometry on cells.

Results are given in words; binding and its absence hold for the method and conditions named. Some results given as binding are weak or reduced against the parent protein; the word gives no strength.

In the case of “mouse Tf-Alexa Fluor 647 (from UniProt Q921I1 20-697) (ligand)”, the binding result in experiment [1] and in experiment [2] was “binds” throughout.
